Data source: PubChem BioAssay AID504804 (Drosophila RNAi Screening Center, 2011)
In all, the deposit lists about 19,000 reagents; this is an unselected part of those with a known target gene and a result. Of all reagents, 47 (0.25%) got an active call. 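Signals are raw, not normalised; exact z-scores behind calls not deposited; actives needed confirmation, so some wells reaching 2 SD are inactive.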 Unmarked entries are inactive.

Test: 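Knock-downs shielding fly cells from apoptosis caused by DNA damage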 (primary screen)
Cells: Drosophila Kc cells
Reagent: long dsRNA against Drosophila genes, 0.5 µg dsRNA per well
Timing: 96 h (48 h knock-down, then 48 h drug)
Conditions: doxorubicin 5 µg/ml for 48 h, added 48 h after dsRNA
Read-out: 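Viability measured as cellular ATP by luminescence after 48 h knock-down then 48 h doxorubicin at 5 µg/ml; unnormalised plate counts for each replicate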
Direction: raw ATP luminescence: higher = more viable cells, protection from doxorubicin
Active means: 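z-score of 2 or more over plate mean in both duplicates, retained only when retests and separate dsRNAs confirm the protection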

target gene | dsRNA | raw ATP luminescence, replicate 1 | raw ATP luminescence, replicate 2
Pal1 | DRSC06106 | 62783 | 57190
CG15719 | DRSC19685 | 3.20e5 | 3.61e5
CG33771 | DRSC11718 | 1.63e5 | 1.69e5
I-2 | DRSC11194 | 79050 | 74657
Syx6 | DRSC07032 | 65503 | 66953
CG13590 | DRSC04226 | 65373 | 55250
CG14135 | DRSC10140 | 80423 | 54577
CG13473 | DRSC10017 | 25737 | 23303
geko | DRSC10044 | 89130 | 72480
geko | DRSC10045 | 51313 | 47593
form3 | DRSC10195 | 67093 | 72597
form3 | DRSC10297 | 49743 | 44340
form3 | DRSC11024 | 53477 | 70363
CG2267 | DRSC15435 | 40870 | 35710
nop5 | DRSC03582 | 25093 | 28070
vir-1 | DRSC02501 | 67687 | 82033
vir-1 | DRSC02863 | 58883 | 74453
Eb1 | DRSC05016 | 38433 | 65277
CycK | DRSC03714 | 72260 | 64667
CG3061 | DRSC15460 | 92760 | 95610
brk | DRSC18745 | 14320 | 17260
IM33 | DRSC00476 | 26023 | 32867
CG6984 | DRSC07013 | 71603 | 73183
CG11112 | DRSC06038 | 47017 | 80150
CG13005 | DRSC19524 | 3.35e5 | 3.08e5
azot | DRSC06051 | 40213 | 68747
Bcs1 | DRSC02789 | 52957 | 80063
emc | DRSC08715 | 82783 | 78147
CG10038 | DRSC14178 | 68107 | 37997
clu | DRSC07181 | 55887 | 65403
CG34269 | DRSC07884 | 1.91e5 | 34843
CG7512 | DRSC10863 | 63270 | 68517
Taf2 | DRSC11298 | 33997 | 29543
CG17776 | DRSC18136 | 47360 | 67730

Single entries from above.
For “raw ATP luminescence, replicate 1”, CG6984 [DRSC07013] has 71603
For “raw ATP luminescence, replicate 2”, vir-1 [DRSC02501] is entered as 82033
